PubChem BioAssay AID1259254, NCATS | 2017
Shown is one part, drawn at random, of about 59,000 reagents. In the full data, about 1,550 (2.6%) were called active. 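G2 share is only a proxy for re-replication; each gene was hit by three separate siRNAs, and active genes were retested.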 The numbers tell different reagents against one gene apart. Further read-outs or replicates are left out here. Not given: the amount of reagent.

Test: 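Gene knock-downs that lead to re-replication, shown by excess G2 DNA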 (primary screen)
Cell system: human HCT116 colorectal cancer cells
Reagent: single siRNA against human genes
Time to read-out: 3 days
Read-out: 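Imaged Hoechst DNA stain sorts each cell into a cycle phase by DNA amount; per plate, G2 fraction set to 0% for non-targeting and 100% for GMNN siRNA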
Reading the numbers: G2 robust z-score and G2 cells, % of GMNN control: higher = more G2 cells, more excess DNA replication
Rule for the call: 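Active siRNAs have a G2 robust z of 5 or more median absolute deviations over the median, which in these data means about 38% or higher of GMNN control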

Which result is listed for BTN3A3 #1?
G2 robust z-score: -0.971; G2 cells, % of GMNN control: -3.87; outcome: inactive

With BTN3A3 #2, what was measured?
G2 robust z-score: -0.17; G2 cells, % of GMNN control: 1.77; outcome: inactive

What is on record for BTN3A3 #3?
G2 robust z-score: -0.693; G2 cells, % of GMNN control: -1.91; outcome: inactive

What did the screen give for MST1R #1?
G2 robust z-score: 0.414; G2 cells, % of GMNN control: 5.88; outcome: inactive

How did the screen score MST1R #2?
G2 robust z-score: 1.12; G2 cells, % of GMNN control: 10.8; outcome: inactive

Which result is listed for MST1R #3?
G2 robust z-score: 1.08; G2 cells, % of GMNN control: 10.5; outcome: inactive

What is on record for GUSBP5 #1?
G2 robust z-score: 1.78; G2 cells, % of GMNN control: 15.5; outcome: inactive

Which result is listed for GUSBP5 #2?
G2 robust z-score: -0.642; G2 cells, % of GMNN control: -1.55; outcome: inactive

Which result is listed for GUSBP5 #3?
G2 robust z-score: 0.271; G2 cells, % of GMNN control: 4.87; outcome: inactive

What is on record for EPC1 #1?
G2 robust z-score: 0.351; G2 cells, % of GMNN control: 5.44; outcome: inactive

What is on record for EPC1 #2?
G2 robust z-score: -0.827; G2 cells, % of GMNN control: -2.85; outcome: inactive

What did the screen give for EPC1 #3?
G2 robust z-score: -0.38; G2 cells, % of GMNN control: 0.29; outcome: inactive

What did the screen give for FKBP4 #1?
G2 robust z-score: -0.172; G2 cells, % of GMNN control: 1.75; outcome: inactive

What is on record for FKBP4 #2?
G2 robust z-score: -0.897; G2 cells, % of GMNN control: -3.35; outcome: inactive

For FKBP4 #3, what was measured?
G2 robust z-score: 0.589; G2 cells, % of GMNN control: 7.11; outcome: inactive

How did the screen score COG1 #1?
G2 robust z-score: 1.12; G2 cells, % of GMNN control: 10.8; outcome: inactive

Which result is listed for COG1 #2?
G2 robust z-score: 3.17; G2 cells, % of GMNN control: 25.3; outcome: inactive

With COG1 #3, what does the deposit list?
G2 robust z-score: -0.532; G2 cells, % of GMNN control: -0.775; outcome: inactive

For PIK3R5 #1, what was measured?
G2 robust z-score: -0.403; G2 cells, % of GMNN control: 0.134; outcome: inactive

For PIK3R5 #2, how do the results read?
G2 robust z-score: 0.202; G2 cells, % of GMNN control: 4.39; outcome: inactive

With PIK3R5 #3, how do the results read?
G2 robust z-score: 0.729; G2 cells, % of GMNN control: 8.1; outcome: inactive

With OR4D1 #1, how do the results read?
G2 robust z-score: 0.926; G2 cells, % of GMNN control: 9.48; outcome: inactive

With OR4D1 #2, how do the results read?
G2 robust z-score: -0.449; G2 cells, % of GMNN control: -0.189; outcome: inactive

For OR4D1 #3, what does the deposit list?
G2 robust z-score: -0.745; G2 cells, % of GMNN control: -2.27; outcome: inactive
